Patent US5739291A, “Glutamate receptor antibodies” (The Salk Institute For Biological Studies, priority 1995, dated 1998)
For at least one compound, name, drawing or mass did not settle the structure.

The chains behind the UniProt entries cited, without tags or fusion partners. A line that says so, or that is headed by a name, gives the form on record, which may keep a tag or linker. Residues count along the entry.
UniProt P19490, 19-907 S67T/A248R/S789T: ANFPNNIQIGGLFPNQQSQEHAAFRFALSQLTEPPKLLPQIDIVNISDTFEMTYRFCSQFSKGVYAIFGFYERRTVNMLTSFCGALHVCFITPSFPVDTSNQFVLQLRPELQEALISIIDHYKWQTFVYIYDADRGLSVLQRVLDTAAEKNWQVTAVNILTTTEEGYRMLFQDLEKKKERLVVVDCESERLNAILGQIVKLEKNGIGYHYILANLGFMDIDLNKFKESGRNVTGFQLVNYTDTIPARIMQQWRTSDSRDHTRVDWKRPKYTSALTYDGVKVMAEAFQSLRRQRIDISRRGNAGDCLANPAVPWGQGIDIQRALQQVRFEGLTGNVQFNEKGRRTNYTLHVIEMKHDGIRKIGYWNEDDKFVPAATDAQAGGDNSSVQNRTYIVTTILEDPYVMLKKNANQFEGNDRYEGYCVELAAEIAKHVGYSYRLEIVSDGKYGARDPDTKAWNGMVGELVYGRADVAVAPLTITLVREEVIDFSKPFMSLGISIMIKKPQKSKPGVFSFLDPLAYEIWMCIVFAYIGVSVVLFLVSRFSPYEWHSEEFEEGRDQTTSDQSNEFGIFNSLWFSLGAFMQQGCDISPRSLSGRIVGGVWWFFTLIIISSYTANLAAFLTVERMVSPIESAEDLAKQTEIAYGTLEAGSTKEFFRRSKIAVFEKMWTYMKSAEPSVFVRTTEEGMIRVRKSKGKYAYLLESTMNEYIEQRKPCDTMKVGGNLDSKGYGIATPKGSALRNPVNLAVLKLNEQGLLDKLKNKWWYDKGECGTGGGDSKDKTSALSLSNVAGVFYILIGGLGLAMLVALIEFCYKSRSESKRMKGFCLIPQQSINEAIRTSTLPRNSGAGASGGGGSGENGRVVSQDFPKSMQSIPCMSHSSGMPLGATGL
UniProt P42260, with tags, fused parts or gaps I567V/Y571C/Q621R: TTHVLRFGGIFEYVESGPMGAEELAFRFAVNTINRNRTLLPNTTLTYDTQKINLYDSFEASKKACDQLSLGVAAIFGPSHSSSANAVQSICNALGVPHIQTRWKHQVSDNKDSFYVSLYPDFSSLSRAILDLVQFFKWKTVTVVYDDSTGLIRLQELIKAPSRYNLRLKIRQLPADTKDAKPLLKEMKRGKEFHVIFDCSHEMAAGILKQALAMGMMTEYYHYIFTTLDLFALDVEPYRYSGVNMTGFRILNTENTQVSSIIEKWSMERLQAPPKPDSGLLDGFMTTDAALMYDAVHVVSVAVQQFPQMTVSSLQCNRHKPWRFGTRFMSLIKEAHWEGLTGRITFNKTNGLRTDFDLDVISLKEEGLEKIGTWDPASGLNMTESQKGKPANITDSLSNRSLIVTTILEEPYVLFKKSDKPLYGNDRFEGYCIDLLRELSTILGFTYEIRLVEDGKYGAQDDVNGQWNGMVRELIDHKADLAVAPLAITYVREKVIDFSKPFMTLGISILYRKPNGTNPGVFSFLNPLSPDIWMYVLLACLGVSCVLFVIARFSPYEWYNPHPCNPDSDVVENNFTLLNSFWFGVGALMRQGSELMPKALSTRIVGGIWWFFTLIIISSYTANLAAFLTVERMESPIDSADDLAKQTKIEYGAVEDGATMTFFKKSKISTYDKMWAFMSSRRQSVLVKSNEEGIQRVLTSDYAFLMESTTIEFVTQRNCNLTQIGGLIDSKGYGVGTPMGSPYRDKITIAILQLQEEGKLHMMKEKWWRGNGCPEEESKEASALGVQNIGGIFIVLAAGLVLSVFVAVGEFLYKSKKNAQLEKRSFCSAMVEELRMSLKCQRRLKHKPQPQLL

Tests used:
GluR1 = target: T1, GluR1 (Rattus norvegicus, UniProt P19490); experiment: Voltage-clamp recording in Xenopus oocytes injected with GluR1 in vitro RNA; type: cell-based
T1 construct: expressed in transfected cells; host or cells: Xenopus oocytes injected with GluR1 in vitro sense RNA
Excerpt: Either a λZAP cDNA preparation, or a plasmid containing the cDNA to be tested, are cut downstream from the cDNA insert with a restriction enzyme. The post-restriction digest is digested with Proteinase K and then extracted with two phenol: chloroform (1:1) extractions. The resulting DNA fragments are then ethanol precipitated. The precipitated fragments are mixed with either T3 RNA polymerase (to make sense strand), or T7 RNA polymerase (to make anti-sense strand), plus rATP, rCTP, rGTP, rUTP, and RNase inhibitor. Simultaneously, the RNA transcripts are capped with a sodium diguanosine triphosphate [G(5')ppp(5')G] cap. The water used for the above procedures is treated with diethylpyrocarbonate to inactivate RNases.
The in vitro synthesized mRNA transcripts are injected into Xenopus oocytes. 50 nl of an RNA solution, 0.2-0.6 mg/ml, is injected into the stage V oocytes. The injected oocytes are incubated at 16° C. in Barth's medium for 2-7 days before they are analyzed for the presence of functional receptors.
Voltage recordings are made by penetrating the oocyte with a micro-electrode filled with 3M KCl and connected to the bridge circuit of an appropriate voltage clamp unit, e.g., the Dagan 8500 voltage clamp unit. Voltage recordings are preferably obtained with two electrodes, a voltage electrode filled with 3M KCl and a current electrode filled with 0.25M CsCl, 0.25M CsF and 50 mM EGTA (ethylene glycol tetraacetic acid).
Oocytes employed herein are obtained from ovarian tissue from anesthetized adult female Xenopus. The ovarian tissue is treated with collagenase, 2 mg/ml, for two hours and then the ovarian epithelium and follicular cells are dissected away.
The plasmid pGluR1 was subsequently rescued from bacteriophage λZAPII-GluR1.
3 days prior to the recording. […]
currents were recorded; each number represents the average of 3 recording […]
The data in FIG. 3B represent the responses of oocytes to the indicated agonists measured 3 days after injection with GluR1 (2 ng) or GluR3 (2 ng) RNA or adult rat brain hippocampus poly(A)^+ RNA (~50 ng). […]

homomeric GluR6 receptor = target: T2, homomeric GluR6 receptor (Rattus norvegicus, UniProt P42260, I567V/Q621R/Y571C); experiment: Homomeric GluR6 ion channel in Xenopus oocytes injected with in vitro transcribed RNA; type: cell-based
T2 construct: A 4559 base pair cDNA encoding a protein of 884 amino acid residues was engineered from RC11 and RC27; expressed in transfected cells; host or cells: Xenopus oocytes injected with in vitro transcribed GluR6 RNA

Row | Compound | Compound Alone (%): % of the response evoked by 30 μM kainate immediately before drug application (GluR1; xenopus oocytes, 1000 µM) [%] | Compound Plus Kainate (%): % of the response seen with 30 μM kainate alone (GluR1; xenopus oocytes, 1000 µM) [%] | responses evoked by other glutamate receptor agonists (GluR1) | response of Con A treated oocytes (homomeric GluR6 receptor)
1 | N[C@H](CCC(=O)NCS(=O)(=O)O)C(=O)O [GAMS, D-glutamylamino-methyl-sulphonate] | 1.0 ± 0.6 | 30.7 ± 1.1 |  | 
2 | N[C@@H](CC(=O)O)C(=O)O [L-aspartate] |  |  | evoked no responses | did not respond
